This passage reports binding results from patent US20240025993A1, “CD19 BINDING MOLECULES AND USES THEREOF” (NOVARTIS AG, priority 2020, published 2024).

Results are given in words; binding and its absence hold for the method and conditions named. Some results given as binding are weak or reduced against the parent protein; the word gives no strength.

The assay deals with cynomolgus (cyno) CD19 (cynomolgus). The assay can be described thus: summary sentence of the examples; no method at this place.

B1: NEG218 (antibody, V domains shown)
VH: EVQLVQSGAEVKKPGESLKISCKASGYSFTNYWMNWVRQMPGKGLEWMGMIHPSDSEIRLNQKFQGQVTLSVDKSIGTAYMQWSSLKASDTAMYYCSRWYYLSSPMDYWGQGTTVTVSS
VL: EIVMTQSPATLSVSPGERATLSCRASQDVGTAVAWYQQKPGQAPRLLIYWASTRHTGIPARFSGSGSGTEFTLTISSLQSEDFAVYFCQQYSSYPYTFGQGTKLEIK
Regarding B1, the binding entry is “binds”.

B2: NEG258 (antibody, V domains shown)
VH: QVQLVQSGAEVKKPGASVKVSCKASGYTFTTYWIQWVRQAPGQRLEWMGAVYPGDADTRYTQKFQGRVTLTADRSASTAYMELSSLRSEDTAVYYCGRDAGLEYYALDYWGQGTLVTVSS
VL: EIVMTQSPATLSVSPGERATLSCRASQDVGTAVAWYQQKPGQAPRLLIYWASTRHTGIPARFSGSGSGTEFTLTISSLQSEDFAVYFCQQYANFPLYTFGQGTKLEIK
B2: the binding result is recorded as “binds”.
